PubChem BioAssay AID686937 – Drosophila RNAi Screening Center | 2013

Assay: 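Genes in the fly needed for secretion of protein constitutively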 (primary screen)
Cells: Drosophila S2 cells expressing secreted horseradish peroxidase
Knock-down reagent: long dsRNA against Drosophila genes
Duration: about 5.5 days (5 days dsRNA, then 12 h reporter induction)
Conditions: reporter expression induced after 5 days of dsRNA, read 12 h later; inducer not stated
Detection: 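Chemiluminescent measurement of peroxidase in the medium 12 h after reporter induction, following 5 days of dsRNA, given as a z-score per plate; higher means more secretion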
Reading the numbers: z-score: higher = more reporter secreted into medium
The screen tested about 23,000 reagents; shown is an unselected part of those with a known target gene and a result. 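Reduced-secretion tags in replicate 1 do not always agree with the z-scores; no criterion for assigning the tags was given.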 Names joined by + are all predicted targets of the reagent. Not all columns of the deposit are shown. Not given: the amount of reagent.

betaNACtes5 (Nascent-associated complex beta-subunit-like, testis 5) [DRSC19100] | z-score, replicate 1 = 0.58
Liprin-alpha [DRSC02132] | z-score, replicate 1 = 0.33
Usp8 (Ubiquitin specific protease 8) [DRSC15876] | z-score, replicate 1 = 0.09
CG9173 [DRSC08635] | z-score, replicate 1 = 0.51
CR10032 (pseudo) [DRSC12499] | z-score, replicate 1 = 0.24
CG40498 [DRSC07786] | z-score, replicate 1 = 0.04
Cyp9f2 (Cytochrome P450 9f2) [DRSC16635] | z-score, replicate 1 = 0.12
CG42749 [DRSC18091] | z-score, replicate 1 = 0.43
CG42749 [DRSC18092] | z-score, replicate 1 = 0.34
CG1317 [DRSC08305] | z-score, replicate 1 = 0.2
Ccp84Ad [DRSC12589] | z-score, replicate 1 = 0.56
Ccp84Ad [DRSC22854] | z-score, replicate 1 = 0.58
CG30088 [DRSC21764] | z-score, replicate 1 = -0.22
Adgf-D (Adenosine deaminase-related growth factor D) [DRSC16521] | z-score, replicate 1 = 0.08

Next part (3 carried over from the part before).
Ccp84Ad [DRSC22854] | z-score, replicate 1 = 0.58
CG30088 [DRSC21764] | z-score, replicate 1 = -0.22
Adgf-D (Adenosine deaminase-related growth factor D) [DRSC16521] | z-score, replicate 1 = 0.08
Root (Rootletin) [DRSC15972] | z-score, replicate 1 = 0.43
Mat89Ba (Maternal transcript 89Ba) [DRSC14540] | z-score, replicate 1 = 0.11
CG14511 [DRSC14863] | z-score, replicate 1 = 0.16
ACXE (Adenylyl cyclase X E) [DRSC00847] | z-score, replicate 1 = -0.2
Obp57c + Obp57b [DRSC21914] | z-score, replicate 1 = -0.62
CG15286 [DRSC01907] | z-score, replicate 1 = -0.01
CG13049 [DRSC09930] | z-score, replicate 1 = 0.21
Coq8 (Coenzyme Q8) [DRSC19900] | z-score, replicate 1 = 0.28
CG9812 [DRSC04566] | z-score, replicate 1 = 0.25
nompC (no mechanoreceptor potential C) [DRSC03581] | z-score, replicate 1 = 0.29
CG32856 [DRSC13124] | z-score, replicate 1 = 0.64
cv (crossveinless) [DRSC17833] | z-score, replicate 1 = 0.28
CG8818 [DRSC07275] | z-score, replicate 1 = 0.24
CG10435 [DRSC14246] | z-score, replicate 1 = 0.72
corolla [DRSC20102] | z-score, replicate 1 = 0.35
Sbds (SBDS ribosome maturation factor) [DRSC10992] | z-score, replicate 1 = 0.28
CG6908 [DRSC16131] | z-score, replicate 1 = -0.06
CG8738 [DRSC07256] | z-score, replicate 1 = 0.28
Dtg (Dpp target gene) [DRSC15998] | z-score, replicate 1 = 0.23
Tnpo (Transportin) [DRSC11309] | z-score, replicate 1 = -3.63
CG13073 [DRSC09956] | z-score, replicate 1 = 0.32
Rassf (Ras association family member) [DRSC15612] | z-score, replicate 1 = 0.29
Cpr62Bb (Cuticular protein 62Bb) [DRSC08404] | z-score, replicate 1 = 0.23
CG14692 [DRSC14915] | z-score, replicate 1 = 0.36
Edem2 (ER degradation enhancer, mannosidase alpha-like 2) [DRSC02877] | z-score, replicate 1 = -0.44
vg (vestigial) [DRSC07715] | z-score, replicate 1 = 0.4
vg (vestigial) [DRSC22669] | z-score, replicate 1 = -0.74
